Literature values as cited in patent publication US6110955A, “Metabolically stabilized oxyalkylene esters and uses thereof” (Beacon Laboratories, Inc., priority 1997, dated 2000).

System: mitochondrial β-oxidation of fatty acids
Conditions: cited from earlier work

**Q.** Which “mitochondrial β-oxidation of fatty acids” value does the source give for `CCCCc1oc2ccccc2c1C(=O)c1cc(I)c(OCCN(CC)CC)c(I)c1` [aminodarone] here?
**A.** decrease mitochondrial β-oxidation of fatty acids
